The target of the experiment is HA-tagged hScrib (human) (UniProt Q14160). The experiment can be described thus: affinity purification with mass spectrometry; HEK293 transfected with HA-tagged hScrib, 24 h; lysis buffer 50 mM Hepes pH 7.4, 150 mM NaCl, 50 mM NaF, 1 mM EDTA, 0.25% NP40; anti-HA beads 2-3 h at 4°C; washed with PBS.

Chains of the proteins cited; added tags and fusions are not shown.
UniProt Q14160: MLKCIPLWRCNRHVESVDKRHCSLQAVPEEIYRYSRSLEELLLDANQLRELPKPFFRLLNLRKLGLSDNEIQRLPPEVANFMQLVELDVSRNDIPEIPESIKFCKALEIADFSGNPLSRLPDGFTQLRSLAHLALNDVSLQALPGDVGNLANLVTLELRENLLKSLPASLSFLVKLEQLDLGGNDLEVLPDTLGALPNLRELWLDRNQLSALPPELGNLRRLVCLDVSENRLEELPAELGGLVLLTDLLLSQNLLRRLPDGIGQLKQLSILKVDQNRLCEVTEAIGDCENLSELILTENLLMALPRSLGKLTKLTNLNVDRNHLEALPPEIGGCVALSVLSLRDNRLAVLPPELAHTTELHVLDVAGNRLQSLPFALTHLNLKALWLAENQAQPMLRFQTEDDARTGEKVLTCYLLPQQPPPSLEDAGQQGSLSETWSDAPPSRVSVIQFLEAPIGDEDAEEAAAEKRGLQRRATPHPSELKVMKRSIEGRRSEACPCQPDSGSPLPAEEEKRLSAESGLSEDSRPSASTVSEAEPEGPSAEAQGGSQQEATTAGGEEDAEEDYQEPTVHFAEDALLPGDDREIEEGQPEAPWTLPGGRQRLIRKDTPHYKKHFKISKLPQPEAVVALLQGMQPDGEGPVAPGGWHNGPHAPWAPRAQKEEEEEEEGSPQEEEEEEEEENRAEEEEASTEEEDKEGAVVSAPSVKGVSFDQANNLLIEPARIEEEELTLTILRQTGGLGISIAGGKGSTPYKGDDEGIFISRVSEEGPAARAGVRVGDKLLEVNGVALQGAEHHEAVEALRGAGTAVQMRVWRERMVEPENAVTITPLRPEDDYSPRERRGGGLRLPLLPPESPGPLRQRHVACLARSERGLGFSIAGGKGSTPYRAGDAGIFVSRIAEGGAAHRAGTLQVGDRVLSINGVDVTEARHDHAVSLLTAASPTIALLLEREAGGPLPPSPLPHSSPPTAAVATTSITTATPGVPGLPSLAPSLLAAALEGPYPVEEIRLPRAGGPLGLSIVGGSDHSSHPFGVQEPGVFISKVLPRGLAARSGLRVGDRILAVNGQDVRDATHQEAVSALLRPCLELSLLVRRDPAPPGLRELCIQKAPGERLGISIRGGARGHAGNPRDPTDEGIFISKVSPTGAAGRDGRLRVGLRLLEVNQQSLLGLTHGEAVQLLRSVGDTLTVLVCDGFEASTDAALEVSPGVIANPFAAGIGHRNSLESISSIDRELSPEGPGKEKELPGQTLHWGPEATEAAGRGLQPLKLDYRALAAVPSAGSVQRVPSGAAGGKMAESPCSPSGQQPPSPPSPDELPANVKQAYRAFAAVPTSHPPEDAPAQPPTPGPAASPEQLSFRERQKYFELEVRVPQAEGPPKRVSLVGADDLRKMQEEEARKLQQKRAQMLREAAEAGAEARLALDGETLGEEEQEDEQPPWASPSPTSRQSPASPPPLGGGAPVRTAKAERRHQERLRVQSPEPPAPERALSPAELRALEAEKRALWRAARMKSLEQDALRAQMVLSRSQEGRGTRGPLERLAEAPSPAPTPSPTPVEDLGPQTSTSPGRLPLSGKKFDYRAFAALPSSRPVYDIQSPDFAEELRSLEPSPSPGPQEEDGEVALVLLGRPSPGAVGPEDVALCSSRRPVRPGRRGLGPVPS
UniProt P08670: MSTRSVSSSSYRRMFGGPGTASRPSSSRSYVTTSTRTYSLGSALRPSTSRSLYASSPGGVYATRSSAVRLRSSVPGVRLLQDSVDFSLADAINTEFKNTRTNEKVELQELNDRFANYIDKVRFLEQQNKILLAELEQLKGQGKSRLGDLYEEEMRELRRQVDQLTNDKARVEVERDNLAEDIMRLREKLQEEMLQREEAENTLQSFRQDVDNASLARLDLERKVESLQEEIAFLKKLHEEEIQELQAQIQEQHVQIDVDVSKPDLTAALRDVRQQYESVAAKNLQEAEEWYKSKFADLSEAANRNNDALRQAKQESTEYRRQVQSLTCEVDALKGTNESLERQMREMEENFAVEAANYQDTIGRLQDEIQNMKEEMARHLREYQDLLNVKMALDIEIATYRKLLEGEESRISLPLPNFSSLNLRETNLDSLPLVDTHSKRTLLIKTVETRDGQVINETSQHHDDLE

No constants are given. Whether binding was seen depends on the method and setting. In cells and extracts the contact can be indirect. A yes stands for co-enrichment or nearness to the bait. Other partners may have been found.

For the substance vimentin (from UniProt P08670 1-466), the binding result was “binds”.

Values taken from paper PMC3554735.
